PubChem BioAssay AID1159578 – Peter MacCallum Cancer Centre – 2015
This is one part, drawn at random, of about 18,000 reagents tested. In the full data, about 1,030 (5.7%) were called active. 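Inactive calls also include pools with fewer than 3300 nuclei, whose migration was not assessed.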 The raw values are shown without normalisation. Further read-outs or replicates are left out here. Reagent sequences are not shown.

Purpose: 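Knock-downs that alter how fast lymphatic endothelial cells migrate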 (primary screen)
Cell system: human lymphatic endothelial cells
Reagent: siRNA pool against human genes, 40 nM
Duration: 48 h after transfection
Measured: 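Cells stained with dye and imaged after a scratch; covered wound area and nuclei counted, duplicates averaged, migration set against mock wells and turned into a robust z-score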
Scale: migration robust z-score: higher = faster migration into the scratch; nuclei per well: higher = more cells in the well
Rule for the call: 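Migration changed when robust z exceeds 2 or falls below -2 and mean nuclei number is at least 3300; otherwise not called changed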
Meaning of the calls: active = migration changed; inactive = no migration change, or too few cells

Gene | migration robust z-score | nuclei per well, duplicate mean | Outcome
SLC2A11 | -0.04 | 5094 | inactive
CRK | -0.96 | 5816 | inactive
ALG3 | -0.25 | 6218 | inactive
SCN9A | -0.2 | 4998 | inactive
KLHDC8A | -1.2 | 3994 | inactive
CIROZ | 1.85 | 6990 | inactive
TOM1L1 | -0.12 | 5548 | inactive
KCNJ10 | 0.39 | 4478 | inactive
FYCO1 | -0.26 | 4660 | inactive
GBP3 | -1.17 | 3238 | inactive
KCTD1 | 0.55 | 5396 | inactive
RALGPS1 | 0.96 | 6860 | inactive
RIMS3 | -2.6 | 2985 | inactive
IFNA17 | 0.57 | 5688 | inactive
HS2ST1 | -0.08 | 5390 | inactive
GTPBP1 | -0.26 | 5517 | inactive
LRRC55 | -1.34 | 5001 | inactive
SLC25A3 | -1.32 | 5656 | inactive
HCG9 | 0.26 | 6513 | inactive
MYL9 | -0.24 | 5120 | inactive
STK40 | -2.59 | 5564 | active
PMAIP1 | -1 | 4738 | inactive
PRR14 | 0.94 | 4538 | inactive
KCNH2 | -5.65 | 2083 | inactive
GPC6 | -1.9 | 3792 | inactive
RHPN2 | -0.32 | 5683 | inactive
ZNF181 | -0.67 | 6364 | inactive
LRRC66 | 1.12 | 6458 | inactive
GOLGA8G | 0.56 | 7034 | inactive
TMEM204 | -1.24 | 3823 | inactive
SELENON | 0.72 | 6616 | inactive
SARM1 | -2.67 | 2896 | inactive
RABL6 | 0.46 | 6733 | inactive
AKAP9 | -0.11 | 4580 | inactive
FZD5 | 1.06 | 5822 | inactive
CAMK1D | -0.7 | 5672 | inactive
FOXE1 | -0.16 | 5537 | inactive
THBS4 | -1.48 | 5670 | inactive
ATP2A3 | -0.88 | 5842 | inactive

Part of the list above, reformatted:
AKAP9 — migration robust z-score = -0.11; nuclei per well, duplicate mean = 4580; Outcome = inactive
FZD5 — migration robust z-score = 1.06; nuclei per well, duplicate mean = 5822; Outcome = inactive
CAMK1D — migration robust z-score = -0.7; nuclei per well, duplicate mean = 5672; Outcome = inactive
FOXE1 — migration robust z-score = -0.16; nuclei per well, duplicate mean = 5537; Outcome = inactive
